# Measurements reported in PMC7862700.
# The list shows a part of the results. The exact form of the protein is not confirmed.
# Biological target: T1, ETS1 (UniProt P14921)
# T1 sequence: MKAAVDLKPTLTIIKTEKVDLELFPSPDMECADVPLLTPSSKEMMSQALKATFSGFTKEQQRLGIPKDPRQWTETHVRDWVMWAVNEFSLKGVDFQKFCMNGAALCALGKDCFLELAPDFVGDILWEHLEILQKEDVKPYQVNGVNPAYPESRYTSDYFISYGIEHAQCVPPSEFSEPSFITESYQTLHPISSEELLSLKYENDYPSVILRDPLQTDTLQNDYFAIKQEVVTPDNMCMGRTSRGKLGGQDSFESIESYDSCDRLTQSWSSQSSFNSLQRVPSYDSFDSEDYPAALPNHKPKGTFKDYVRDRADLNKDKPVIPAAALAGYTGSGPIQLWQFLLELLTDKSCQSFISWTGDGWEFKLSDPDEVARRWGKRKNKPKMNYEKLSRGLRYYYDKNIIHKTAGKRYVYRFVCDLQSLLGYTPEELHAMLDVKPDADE
# Assay: DAPPL (digital affinity profiling via proximity ligation, sequencing)
# Conditions: 10 mM Tris-HCl pH 7.5, 50 mM NaCl, 1 mM DTT, 4% glycerol, room temperature, 30 min; GST-TFs on glutathione beads, 16-mer random dsDNA library, 0.1% …; high values mean tight binding; double strand, one strand shown; scale: fold enrichment (6-mer frequency, TF over GST control)
row,Sequence,binding signal
1,CGAGTT,1.11
2,AATTCA,1.42
3,CTAGGT,1.19
4,CTGGTT,1.39
5,ACTGGC,1.2
6,GCCAAT,1.06
7,ATCTGT,1.2
8,TGCTGC,1.06
9,CTTGAC,1.17
10,TATAGT,0.994
11,CCGCCT,1.51
12,TCCCTT,1.56
13,TTTACA,1.28
14,AAAAGA,1.2
15,CTTTTG,1.32
16,ATACCA,1.05
17,GACATC,1.2
18,GCTCCT,1.35
19,CTATTC,1.23
20,TCTCGG,1.5

# Given with bars between the fields: part of the list above
row | Sequence | binding signal
11 | CCGCCT | 1.51
19 | CTATTC | 1.23

# Later entries.

row,Sequence,binding signal
1,ATTGAC,1.25
2,TAGTTT,1.12
3,AGCCCT,1.2
4,CTTCTA,1.5
5,CTCTGT,1.39
6,AATTGC,1.39
7,CATCCG,2.04
8,GCCCTT,1.29
9,GTAAAC,1.26
10,AAATTA,1.24
11,AACATG,1.19
12,TTCAAG,1.33
13,TCACGC,1.24
14,GCTCCA,1.26
15,GATTCT,1.19
16,TAAAAC,1.15
17,AGAAAT,1.18
18,GATTCC,1.09
19,CTGCAC,1.14
